Measured values as given in patent EP2133323B1, “The production and use of 3,5-dicaffeoyl-4-malonylquinic acid” (I.R.B. Istituto Di Ricerche Biotecnologiche S.r.l., priority 2008, dated 2009).
For at least one compound, name, drawing or mass did not settle the structure.

Assay: UV absorption (sun-screen activity), spectrophotometry 250-400 nm
Assay type: physicochemical
Source text: This example reports the test to determine the UV absorption of the molecule 3,5-dicaffeoyl-4-malonylquinic acid compared to a commercially available molecule widely used as a sun screen (PARSOL MCX).
The compounds have been examined in an aqueous solution of: • 0.2 M phosphate buffer pH 5.0 • 0.1 M HCl solution at pH 1.0.
The pH 5.0 buffer has been selected as the condition used most frequently in the preparation of sun screens. The pH 1.0 solution has been examined in order to also observe the stability of the compounds at extreme pH values.
The analyses have been conducted using a Shimadzu model UV 1601 spectrophotometer, analysing the spectrum from 250 nm to 400 nm in order to ascertain the absorption of UVA and UVB.
The results report the absorption values at maximum wavelength (λ Max) and at 330 nm, this being the wavelength most frequently used for quantitative measurements for the products in question.
The values are expressed in: • specific extinction, corresponding to the extinction at the given λ for a solution at a concentration of 1.0 µg/mL. • Epsilon = the molar absorption, calculated using the formula Epsilon = A/C*L [formula] where A is the absorption value in mAU, C is the concentration of the solution in moles and L is the path length of the solutions in cm (always 1 cm).

CCCCC(CC)COC(=O)C=Cc1ccc(OC)cc1 (centres unmarked) [PARSOL MCX, ethyl-hexyl methoxycinnamate, reference compound]
Epsilon (in abs. EtOH, λ Max 310 nm): 25.305
Epsilon (pH 5.0, λ Max 312 nm, sol. EtOH/H3PO4 (1/1)): 14.166
